For some of these results: Expression grades refer to the transcript from which the peptide derives; gene names, where given, were looked up from the sequence.
System: HLA molecules from shock-frozen tissue samples (CRC, other tumors, normal tissues)
Test: Identification and label-free relative LC-MS quantitation of HLA-presented tumor associated peptides (presentation profiles, XPRESIDENT)
Parameters: species or system human; key to Peptide Presentation (presentation score): very highly over-presented on tumors compared to a panel of normal tissues (+++); highly over-presented on tumors compared to a panel of normal tissues (++); over-presented on tumors compared to a panel of normal tissues (+)
Conditions: additional tumor types: over-presented on more than 5% of measured tumor samples, or presented on more than 5% with ratio of geometric means tumor vs normal larger than 3

Row | Substance | Other relevant organs/diseases
1 | 142 (SLVQRVETI; listed as Homo sapiens) [compound 142] | Lung, Kidney, Liver, Melanoma, Ovary, Esophagus
2 | 152 (KLLAVIHEL; listed as Homo sapiens) [compound 152] | Lung, Kidney, Pancreas, Ovary, Esophagus
3 | 1 (ALIKQLFEA; listed as Homo sapiens) [compound 1] | Lung, Brain, Ovary, Esophagus
4 | 67: peptide found in SMARCA4 (gene looked up) (SLNDLEKDVMLL; listed as Homo sapiens) [compound 67] | Leukocytes, Melanoma

Same assay, conditions: over-presentation on more than 5% of the measured tumor samples, or presentation on more than 5% of the measured tumor samples with ratio of geometric means tumor vs normal tissues larger than 3

Row | Substance | Additional Entities (additional tumor types on which the peptide was found)
5 | 142 (SLVQRVETI; listed as Homo sapiens) [compound 142] | SCLC, PC, BRCA, Urinary bladder cancer, Uterine Cancer, Gallbladder Cancer, Bile Duct Cancer, NHL
6 | 152 (KLLAVIHEL; listed as Homo sapiens) [compound 152] | BRCA, Melanoma, Urinary bladder cancer, Gallbladder Cancer, Bile Duct Cancer, AML, NHL
7 | 1 (ALIKQLFEA; listed as Homo sapiens) [compound 1] | SCLC, GC, BRCA, Melanoma, Urinary bladder cancer, Uterine Cancer, Gallbladder Cancer, Bile Duct Cancer, AML, NHL
8 | 22 (GLIDEVMVL; listed as Homo sapiens) [compound 22] | Gallbladder Cancer, Bile Duct Cancer
9 | 67: peptide found in SMARCA4 (gene looked up) (SLNDLEKDVMLL; listed as Homo sapiens) [compound 67] | SCLC, Urinary bladder cancer, Uterine Cancer, AML, NHL

Same assay, conditions: over-presentation on tumors compared to a panel of normal tissues

Row | Substance | Peptide Presentation (presentation score)
10 | 142 (SLVQRVETI; listed as Homo sapiens) [compound 142] | +++
11 | 152 (KLLAVIHEL; listed as Homo sapiens) [compound 152] | +
12 | 1 (ALIKQLFEA; listed as Homo sapiens) [compound 1] | +++
13 | 22 (GLIDEVMVL; listed as Homo sapiens) [compound 22] | +++
14 | 67: peptide found in SMARCA4 (gene looked up) (SLNDLEKDVMLL; listed as Homo sapiens) [compound 67] | +

System: source genes of the peptides in CRC and normal tissues
Test: mRNA expression profiling of source genes encoding the peptides (Affymetrix microarrays)
Parameters: species or system human; key: very highly over-expressed in tumors compared to a panel of normal tissues (+++); highly over-expressed in tumors compared to a panel of normal tissues (++); over-expressed in tumors compared to a panel of normal tissues (+)
Conditions: over-expression in tumors compared to a panel of normal tissues

Row | Substance | Gene Expression (expression score of source gene)
15 | 67: peptide found in SMARCA4 (gene looked up) (SLNDLEKDVMLL; listed as Homo sapiens) [compound 67] | ++

System: not listed separately
Test: Absolute quantitation of TUMAP copies per cell (nanoLC-MS/MS, isolation efficiency, DNA-based cell count)
Parameters: species or system human
Conditions: NSCLC tumor samples; median number of copies per cell

Row | Substance | Copies per cell (median)
16 | 142 (SLVQRVETI; listed as Homo sapiens) [compound 142] | + (<100 = +)
17 | 152 (KLLAVIHEL; listed as Homo sapiens) [compound 152] | +++ (>=1,000 +++)
18 | 1 (ALIKQLFEA; listed as Homo sapiens) [compound 1] | + (<100 = +)
19 | 22 (GLIDEVMVL; listed as Homo sapiens) [compound 22] | ++ (>=100 = ++)
